This series in a line: general procedure: Fmoc solid-phase peptide synthesis; PyBOP/NMM (manual Fmoc-Cys(Trt) coupling). The conditions noted are these: conjugation step.

In PMC6686729 (Chemical Science, 2019) one finds conjugation yield data, which are given here for 2 substances.

HELM strings list residues between dots; [ac] is acetyl, [am] amide, other brackets name non-standard units.

In the case of “PEPTIDE1{R.G.D.[dF].K}|PEPTIDE2{[AZA-NO2-OCH2CO].[PEG].[PEG]}$PEPTIDE1,PEPTIDE1,1:R1-5:R2|PEPTIDE1,PEPTIDE2,5:R3-3:R2$$$V2.0”, the conjugation yield (HCl salt) was determined as 85%. Turning to “PEPTIDE1{[ac].C.R.G.D.K.G.P.D.C.[am]}|PEPTIDE2{[ac].C}|CHEM1{[Suc-AZA-NO2]}$PEPTIDE1,PEPTIDE1,2:R3-10:R3|PEPTIDE1,PEPTIDE2,6:R3-2:R2|PEPTIDE2,CHEM1,2:R3-1:R1$$$V2.0”, the conjugation yield (HCl salt (2)) amounted to 71%.
